PubChem BioAssay AID1487 (National Center for Advancing Translational Sciences (NCATS), 2009)
Hit rate of the full screen: of about 200,000 compounds, about 25 (0.01%) were called active. Inconclusive results, whose numbers are uncertain, are shown with a selection of clear calls. Calls come from the whole dose curve; as a rule, active = well fitted inhibition curve with a large enough effect in the signal ratio, with a control signal flat (not every such curve was filed as active); inconclusive = small, poorly fitted or top-dose-only effect, or effect the other way, or a change in a side signal; inactive = flat fitted curve, though single readings scatter; the % refers to the signal ratio. Where the call is inconclusive, the potency comes from a doubtful curve fit.

experiment: qHTS Assay for Modulators of Lamin A Splicing; conditions: HeLa LMNA splicing GFP/RFP minigene ratio, 48 h; ratio change, negative = inhibition: at 46.1 µM (top of the series) unless noted
Excerpt: NCGC Assay Overview: Hutchinson-Gilford Progeria Syndrome (HGPS) is a pediatric premature aging disease caused by a spontaneous mutation in the lamin A/C (LMNA) gene. The mutation activates a cryptic splice site in the LMNA pre-mRNA which results in production of a pre-lamin A protein that cannot be processed properly. The mutant protein accumulates in the nucleus and negatively affects numerous cellular functions. Correction of the splicing defect in HGPS patient cells using a targeted oligonucleotide (exo11) leads to reversal of the cellular disease phenotypes. To identify small molecule modulators of aberrant LMNA splicing, a homogenous assay was constructed in HeLa cells that used a GFP containing minigene to report on correction of aberrant splicing in lamin A and a RFP (DsRed2) to report on cell viability, uniformity and nonspecific effects on the assay signal. This assay was adapted to laser-scanning microplate cytometry (Acumen, TTP Labtech) where miniaturization of the assay to a 1,536-well plate format was possible. References: Bowen, W. P.; Wylie, P. G. Application of Laser-Scanning Fluorescence Microplate Cytometry in High Content Screening. Assay Drug Dev Technol 2006;4:209-221. Scaffidi P, Misteli T. Reversal of the cellular phenotype in the premature aging disease Hutchinson-Gilford progeria syndrome. Nat.
NCGC Assay Protocol Summary: Reagents/Controls: Stable clones expressing DsRed2 and lamin A-EGFP were generated by Cell and Molecular Technologies in S3 HeLa cells. HeLa cells were prepared for the assay when they were 70-90% confluent. The cells were counted and resuspended in Opti-MEM I (no phenol red; Gibco), 2% FBS, 1% penicillin/ streptomycin (Gibco) at concentration of 120 cells/uL concentration. The suspension was passed through a Falcon basket filter with pore size 40um (Beckton Dickson). Control titrations: column […] 1536-well plate contained a sixteen point titration (1:2 dilutions) in duplicate of ancitabine (Sigma: A8598) beginning at 40 uM final concentration. Column 2 contained a sixteen point titration (1:2 dilutions) of cycloheximide beginning at 1.4 mM final concentration. Column 3 contained ancitabine at 40 uM and column 4 contained was the vehicle control (0.5% DMSO final concentration). Assay Steps: 5 uL of HeLa cells were plated in Aurora LoBase black clear bottom (cyclic-olefin polymer) 1536-well plates at a final density of 600 cells/well. Controls and library compounds were added with a 1536-well pin array using the Kalypsys pin-tool. The plates were then incubated for 48 hrs in a cell-culture incubator (37 °C; 5% CO2, 98% humidity). Following incubation the plates were read on the Acumen Explorer using the 488 nm laser. Data was collected on objects between 10 and 100 um in size. Cell objects were defined by a 15 um width x 10 um depth filter. The ratio of the total object intensity in PMT1 (500-530 nm emission; GFP) over PMT3 (575-640 nm emission; RFP) was calculated for analysis. Keywords: NIH Roadmap, MLSCN, MLI, MLSMR, qHTS, NCGC, lamin A, Progeria, RNA splicing.
% is set by controls: 0 for no effect and ±100 for the full control effect; potency is the fitted concentration of half-maximal effect.

Structure (SMILES)	ratio change, negative = inhibition	Potency
CCc1ccc(OCC(=O)OC2CCS(=O)(=O)C2)cc1 (configuration not stated)	inconclusive: 4.18%	
COc1ccc(C(=O)C2CCCN(C(=O)c3ccc4cc[nH]c4c3)C2)c(C)c1 (configuration not stated)	inactive: 13.6% [at 46 µM]	
CCOC(=O)c1cccc(NC(=O)COc2ccc([N+](=O)[O-])cc2)c1	inactive: 0.808%	
CNC(=O)c1ccc2c(c1)N(Cc1ccccc1Cl)C(=O)c1ccccc1S2	inconclusive: -9.37% [at 46 µM]	
Cc1ccc(-c2onc3ccc(Cl)cc23)cc1	inactive: -2.38%	
CCOCCCNS(=O)(=O)c1ccc(NC(=O)c2ccccc2)cc1		inconclusive: 11.2 µM [fluorescent, single point]
C=CCc1ccc(OCC(O)CN2CCN(Cc3ccc(Cl)cc3)CC2)c(OC)c1 (configuration not stated)		inconclusive: 35.5 µM [fluorescent, single point]
COc1cccc(N2CCN(C3CC(=O)N(c4ccc(Cl)c(Cl)c4)C3=O)CC2)c1 (configuration not stated)	inactive: -8.98%	
COc1ccccc1C(=O)Nc1nnn(C)n1	inconclusive: -6.25%	
Cc1cc(C)n(-c2nc(SCCN(C)C)c3c4c(sc3n2)CCCC4)n1	inconclusive: -5.05%	
Cc1onc(-c2c(F)cccc2Cl)c1C(=O)NCCc1ccc(S(N)(=O)=O)cc1	inconclusive: 13.6%	
O=S(=O)(NC(=NCCc1ccc(Cl)cc1)c1ccccc1Cl)c1cccs1	inconclusive: -16.2% [at 46 µM]	
O=C(CCc1nnc(CCCCc2ccccc2)o1)NCCN1CCOC1=O		inconclusive: 35.5 µM [cytotoxic, single point]
O=C1NC(=S)/C(=C\c2ccc(-c3ccccc3Cl)o2)S1		inconclusive: 17.8 µM [inhibitor, single point]
Cc1ccc(-n2nc(C)c3c(C)cc(=O)n(CC(=O)Nc4cccc(C)c4C)c32)cc1	inconclusive: 27% [at 46 µM]	
CCN(CC)S(=O)(=O)c1ccc(N2CCN(S(=O)(=O)c3ccc4c(c3)OCCO4)CC2)nc1		inconclusive: 14.1 µM [falling, single point]
c1ccc2c(c1)N1CCCN=C1N2CCN1CCCCC1	inconclusive: 1.89% [at 46 µM]	
Cc1ccc2nc(NC(=O)CSc3nccn3Cc3ccc(F)cc3)sc2c1	inconclusive: -15% [at 46 µM]	
CC(=O)Nc1sc(NC(=O)c2ccc(Cl)cc2)nc1-c1cccs1	inconclusive: 29.3%	
CCSC1=C(C#N)C2(CCCCC2)C2=C(CC(C)(C)CC2=O)N1	inconclusive: 30.6% [at 46 µM]	
CCNc1nc(Oc2ccc(OC)cc2)cc(C(F)(F)F)n1	inconclusive: 22.7% [at 46 µM]	

An excerpt of these results, in CSV form:
Structure (SMILES),"ratio change, negative = inhibition",Potency
CCSC1=C(C#N)C2(CCCCC2)C2=C(CC(C)(C)CC2=O)N1,inconclusive: 30.6% [at 46 µM],
CCNc1nc(Oc2ccc(OC)cc2)cc(C(F)(F)F)n1,inconclusive: 22.7% [at 46 µM],

More records

Structure (SMILES)	ratio change, negative = inhibition	Potency
CCOC(=O)c1ccc(NC(=O)CCc2nc(-c3ccccc3)no2)cc1		inconclusive: 31.6 µM [falling, single point]
COc1ccc(CCC(=O)Nc2cc([N+](=O)[O-])ccc2OC)cc1	inconclusive: -13.2%	
CCOC(=O)CCn1c(=O)c2c(nc(Br)n2Cc2ccccc2)n(C)c1=O	inactive: 14.2%	
COc1cccc(N2CCN(C(=O)CN3CCSc4ccccc43)CC2)c1	inconclusive: 8.71% [at 46 µM]	
COc1cc(C(=O)Nc2ccc(-c3nc4cc(C)ccc4o3)c(O)c2)cc(OC)c1OC	inconclusive: -12%	
O=C(c1ccncc1)N1CCN(C(=O)c2cccc3ccccc23)CC1		inconclusive: 5.62 µM [fluorescent, single point]
COc1ccc2cc3[n+](cc2c1OC)CCc1cc2c(cc1-3)OCO2	inconclusive: -15.7%	
COC(=O)c1ccccc1NC(=O)CSc1nc(C)c(Cl)c(C)c1C#N		inconclusive: 35.5 µM [inhibitor, single point]
CC(=O)c1ccc(NC(=S)Nc2cccc(S(=O)(=O)Nc3c(C)n(C)n(-c4ccccc4)c3=O)c2)cc1	inactive: 1.05% [at 46 µM]	
COc1ccc(-c2noc(Cc3ccccc3OC)n2)cc1		inconclusive: 35.5 µM [falling, single point]
COc1ccccc1NC(=O)Cn1nc(-c2ccc(Cl)cc2)c2ccccc2c1=O	inconclusive: 3.42%	
COc1ccc(-c2cc(-c3ccccc3)c(C#N)c(S(C)=O)n2)cc1 (configuration not stated)		inconclusive: 35.5 µM [inhibitor, single point]
Cc1ccc(CCNC(=O)C23C[C@H]4C[C@@H](C2)CC(n2nnc(C)n2)(C4)C3)cc1	inactive: -6.87% [at 46 µM]	
Cc1sc2nc3c(SC(C)C(=O)O)cc(C(=O)c4ccccc4O)cn3c(=O)c2c1C (configuration not stated)	inconclusive: -32.2%	
COc1ccc2cc(C3CC(c4ccco4)=NN3S(=O)(=O)c3ccccc3)c(Cl)nc2c1 (configuration not stated)	inactive: 0.757%	
CCCCCN1C=CC(=C2C(=O)c3ccccc3C2=O)C=C1	inactive: 24.4% [at 46 µM]	
O=c1oc2ccccc2cc1-c1nc2ccccc2o1	inactive: 16.3%	
CN(C)CCCN1C(=O)CSC1c1ccc([N+](=O)[O-])cc1 (configuration not stated)	inconclusive: 25.5% [at 46 µM]	
COc1ccc(-c2nc3c(c4c2C[C@H](c2ccccc2)OC4)CN(C(=O)NCc2ccco2)CC3)c(C)c1	inconclusive: 21.1% [at 9.22 µM]	
CCOC(=O)COc1cccc2c(=O)n(CC(=O)N3CCc4ccccc43)ccc12	inactive: 5.33%	
CCCn1c(SCC(=O)Nc2cc(Cl)ccc2Cl)n[nH]c1=O	inconclusive: -21% [at 46 µM]	

Structure (SMILES)	ratio change, negative = inhibition	Potency
NC(=O)c1ccsc1NC(=O)CSc1nnc(Nc2ccccc2)s1	inconclusive: -0.217% [at 46 µM]	
COCCNC(=O)CN1C(=O)c2cccnc2Oc2ccc(Cl)cc21	inactive: 23.5% [at 46 µM]	
CCn1c(=O)c(C(=O)CN(C)Cc2cccc(OC)c2OC)c(N)n(Cc2ccccc2)c1=O	inactive: 7.27%	
CCCn1c2ccc(F)cc2c2nnc(SCCN(CC)CC)nc21	inactive: -20.5% [at 46 µM]	
Cc1ccc(CNc2oc(C)nc2C#N)cc1	inactive: 6.97%	
Cc1noc(C)c1-c1cc(NCc2cccs2)ncn1	inconclusive: -21.7%	
CCOC(=O)c1cc(C(=O)OCC)c(=O)[nH]c1N1CCCCC1		inconclusive: 0.794 µM [rising, partial curve, poor fit]
O=C(COc1ccccc1Cl)Nc1ccc(CN2CCCCC2)cc1	inactive: -10% [at 46 µM]	
COCC(C)Nc1ncnc2c1cnn2-c1ccc(C)c(C)c1 (configuration not stated)	inconclusive: -18% [at 46 µM]	
CC(=O)C1=C(C)N(Cc2ccccc2)C(=O)N[C@H]1c1cccc(C(F)(F)F)c1	inconclusive: -35.7%	
CCOC(=O)c1[nH]c(C)c(C(=O)NC2CCCCCC2)c1C	inactive: 8.84%	
CCN(CC)C(=O)CSc1nc2ccccc2c(=O)[nH]1	inactive: -16.7%	
Cc1ccc(NC(=O)c2ccc(=O)n(Cc3ccccc3C)c2)c(C)c1	inactive: 15.1% [at 46 µM]	
O=c1c(CCc2ccccc2)nc2cncnc2n1Cc1ccc(F)cc1	inconclusive: 6.48%	
[Li+]	inactive: -20.5%	
COCCN=C1Sc2nc3ccc(C)cc3cc2CN1Cc1cccs1	inactive: 8.02% [at 46 µM]	
Cc1ccc(CN2CCN(/N=C/c3cc(Br)ccc3O)CC2)cc1	inconclusive: -20.2%	
CCOC(=O)c1c(NC(C)=O)c2c3c(sc2n1Cc1nc(-c2ccccc2C)oc1C)CCCC3	inactive: 1.2% [at 46 µM]	
COc1ccccc1NC(=O)CCC(=O)OCc1ccc([N+](=O)[O-])cc1	inconclusive: 32.3% [at 46 µM]	
Cc1nnc(N/N=C/c2c(O)n(-c3cccc(C(F)(F)F)c3)c(=O)c3ccccc23)[nH]c1=O		inconclusive: 35.5 µM [rising, single point]
CCOC(=O)N1CCC(NC(=O)Cn2cc3c(n2)CCC(C)C3)CC1 (configuration not stated)	inactive: -20.8%	

A few values from above:
ratio change, negative = inhibition with `CCCn1c2ccc(F)cc2c2nnc(SCCN(CC)CC)nc21` reads inactive: -20.5% [at 46 µM]
ratio change, negative = inhibition with `[Li+]` reads inactive: -20.5%

Remaining list, next part.

Structure (SMILES)	ratio change, negative = inhibition	Potency
O=C(COC(=O)Cn1cnc2ccccc21)Nc1ccc2c(c1)C(=O)c1ccccc1C2=O	inactive: -14.1%	
CC(C)N1CCc2c(sc(NC(=O)c3cc(-c4cccs4)nc4ccccc34)c2C(N)=O)C1	inconclusive: -8.61%	
CC(CC(=O)Nc1ccc(Br)cc1F)S(=O)(=O)c1ccc2c(c1)NC(=O)CO2 (configuration not stated)	inconclusive: 5.87% [at 46 µM]	
CCCCOc1ccc(CNC(=O)CCCN2C(=O)CSc3c2c(C)nn3-c2ccccc2)cc1	inconclusive: -28.9% [at 46 µM]	
CCOC(=O)c1ccccc1NC(=O)c1sc2nc3n(c(=O)c2c1C)CCCC3	inconclusive: 12.1% [at 46 µM]	
CCc1ccc(CNC(=O)CN2C(=O)c3cccnc3Oc3ccc(C)cc32)cc1	inconclusive: -20.9% [at 46 µM]	
COc1ccc(Cl)cc1NC(=O)Cn1cccc1	inconclusive: 15.7%	
CCOC(=O)C1=C(C)Nc2ccccc2N=C1NC(=O)/C=C/c1ccc(OC)cc1OC	inactive: -2.39% [at 46 µM]	
Cc1ccc(C(=O)NNc2cc(N3CCCC3)nc(N3CCCC3)n2)cc1	inactive: -10.3%	
CCOc1ccccc1OCCOCCOc1c(Cl)cccc1Cl	inactive: -8.74%	
Cc1ccc(N(C(=O)c2snc(C(N)=O)c2N)C(C(=O)NCCC(C)C)c2ccco2)cc1 (configuration not stated)	inconclusive: -28.7% [at 46 µM]	
O=C(OCc1ccccc1)/C(=C/c1ccc(Cl)cc1)NC(=O)c1ccccc1Cl	inconclusive: 37%	
Cc1ccc(C)c(NC(=O)c2cnn3ccccc23)c1		inconclusive: 12.6 µM [falling, partial curve]
O=C(CCC(=O)N/N=C/c1ccc(Br)s1)NCc1ccccc1	inactive: -6.06%	
Cc1ccc(S(=O)(=O)Nc2ccc(-c3nnc(SCc4ccccc4Cl)o3)cc2)cc1	inconclusive: -54.4%	
CCOc1ccc(NC(=O)Cn2ccn(-c3ccc(F)c(F)c3)c(=O)c2=O)cc1	inconclusive: 27% [at 46 µM]	
O=c1[nH][nH]cc1C=Nc1ccccc1O	inconclusive: -30.3%	
CCSc1nnc(NC(=O)[C@@H](NC(=O)c2cccc(C)c2)C(C)C)s1	inactive: -16.1%	
Cn1c(-c2ccccc2)c(/C=N/NC(=O)c2ccc(O)cc2)c2ccccc21	inconclusive: 19.7% [at 46 µM]	
